Data from publication PMC12613110, “Anti-Trypanosoma cruzi Effects of Sesquiterpenoids from Branches of Drimys brasiliensis (Winteraceae)” (ACS Omega, 2025).
Values joined by “and” are separate entries in the source; they are usually repeats but may differ in a detail not shown here. Equal entries are not always repeated.

Columns and labels:
[1] = tested on: intracellular amastigote forms of T. cruzi; assay: Activity against intracellular amastigote forms of T. cruzi in infected peritoneal macrophages (48 h); format: cell-based, Trypanosoma cruzi; details: Selectivity Index, NCTC CC50 vs amastigote EC50
Description: (§1) The trypomastigote forms of T. cruzi (Y strain) were maintained in culture using Rhesus monkey kidney cells (LLC-MK2, ATCC CCL-7). These cells were cultured in RPMI-1640 medium supplemented with 2% fetal bovine serum (FBS) and incubated at 37 °C in a humidified atmosphere containing 5% CO2. Mouse fibroblast cells (NCTC clone L929, ATCC) and LLC-MK2 cells were similarly maintained in RPMI-1640 medium supplemented with 10% FBS under identical incubation conditions (37 °C, 5% CO2). Peritoneal macrophages were isolated from BALB/c mice by peritoneal lavage using RPMI-1640 medium supplemented with 10% FBS, followed by incubation at 37 °C in a 5% CO2 humidified atmosphere. In addition, the human monocytic cell line THP-1 (ATCC TIB-202) was cultured in RPMI-1640 medium supplemented with 20% FBS and […] glutamine, and maintained at 37 °C in a humidified 5% CO2 environment.
The antiparasitic activity of compounds 1–6 against the intracellular amastigote forms of T. cruzi was assessed using an in vitro infection model with peritoneal macrophages. Macrophages were seeded in 16-well plates at a density of 1 × 10^5 cells per well and incubated at 37 °C in a humidified atmosphere containing 5% CO2 for 24 h to promote adherence. Cells were then infected with trypomastigotes for 2 h under the same conditions to allow parasite internalization. […]

[2] = tested on: T. cruzi trypomastigotes (Y strain); assay: Anti-T. cruzi activity against trypomastigote forms (resazurin reduction assay, 24 h); format: cell-based, Trypanosoma cruzi; details: Selectivity Index, NCTC CC50 vs trypomastigote EC50
Description: as §1
Compounds 1–6 were initially dissolved in DMSO and subsequently diluted in RPMI-1640 medium to the desired concentrations before being dispensed into 96-well microplates. T. cruzi trypomastigotes were then added at a density of 1 × 10^6 parasites per well. The plates were incubated for 24 h at 37 °C in a humidified atmosphere containing 5% CO2. […] Absorbance readings were acquired at 570 nm using a microplate spectrophotometer (FilterMax F5). […]

With `C=C1[C@@H](C)CC[C@]2(C)[C@@H](C=O)C(C=O)=CC[C@@H]12` [Compound 6, 9-deoxymuzigadial] the SI amastigote [1] was 64.3 and >64.3 and the SI trypomastigote [2] was over 34.0.
